Our source for the binding values is doi:10.1101/2022.11.09.515888.

By UniProt entry, the sequences of proteins in these tests, tags left out.
UniProt Q61188: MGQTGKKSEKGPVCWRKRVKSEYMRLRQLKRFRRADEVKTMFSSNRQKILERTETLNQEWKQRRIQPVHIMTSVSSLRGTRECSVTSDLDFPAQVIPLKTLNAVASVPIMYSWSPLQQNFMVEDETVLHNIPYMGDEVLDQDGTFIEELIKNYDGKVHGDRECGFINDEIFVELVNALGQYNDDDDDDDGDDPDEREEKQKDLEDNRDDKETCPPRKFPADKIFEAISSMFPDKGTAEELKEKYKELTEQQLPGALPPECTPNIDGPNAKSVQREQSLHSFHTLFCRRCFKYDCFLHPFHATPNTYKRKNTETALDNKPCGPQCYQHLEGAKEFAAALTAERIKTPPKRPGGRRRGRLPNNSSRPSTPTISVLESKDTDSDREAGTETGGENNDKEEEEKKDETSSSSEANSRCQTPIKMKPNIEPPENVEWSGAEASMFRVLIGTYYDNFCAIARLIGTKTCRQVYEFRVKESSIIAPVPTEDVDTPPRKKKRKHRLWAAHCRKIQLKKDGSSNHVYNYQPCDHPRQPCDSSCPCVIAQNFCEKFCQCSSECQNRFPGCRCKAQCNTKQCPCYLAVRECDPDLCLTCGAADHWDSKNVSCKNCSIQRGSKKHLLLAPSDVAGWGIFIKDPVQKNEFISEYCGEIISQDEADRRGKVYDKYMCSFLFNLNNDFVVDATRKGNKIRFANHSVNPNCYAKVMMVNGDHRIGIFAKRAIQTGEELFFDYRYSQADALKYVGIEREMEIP
UniProt O09106: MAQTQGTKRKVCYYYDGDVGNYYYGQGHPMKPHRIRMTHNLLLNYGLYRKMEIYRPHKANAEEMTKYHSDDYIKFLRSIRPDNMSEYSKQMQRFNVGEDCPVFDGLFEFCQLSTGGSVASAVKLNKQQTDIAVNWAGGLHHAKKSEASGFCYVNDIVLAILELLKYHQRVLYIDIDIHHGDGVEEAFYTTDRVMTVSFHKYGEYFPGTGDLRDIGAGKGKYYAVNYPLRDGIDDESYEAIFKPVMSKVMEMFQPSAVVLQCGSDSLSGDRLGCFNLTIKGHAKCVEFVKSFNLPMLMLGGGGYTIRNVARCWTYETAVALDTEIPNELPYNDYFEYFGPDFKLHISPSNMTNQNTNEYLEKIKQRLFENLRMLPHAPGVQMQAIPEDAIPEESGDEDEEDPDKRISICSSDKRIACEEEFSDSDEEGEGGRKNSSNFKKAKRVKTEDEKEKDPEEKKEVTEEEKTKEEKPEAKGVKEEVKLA
UniProt Q6NZM9: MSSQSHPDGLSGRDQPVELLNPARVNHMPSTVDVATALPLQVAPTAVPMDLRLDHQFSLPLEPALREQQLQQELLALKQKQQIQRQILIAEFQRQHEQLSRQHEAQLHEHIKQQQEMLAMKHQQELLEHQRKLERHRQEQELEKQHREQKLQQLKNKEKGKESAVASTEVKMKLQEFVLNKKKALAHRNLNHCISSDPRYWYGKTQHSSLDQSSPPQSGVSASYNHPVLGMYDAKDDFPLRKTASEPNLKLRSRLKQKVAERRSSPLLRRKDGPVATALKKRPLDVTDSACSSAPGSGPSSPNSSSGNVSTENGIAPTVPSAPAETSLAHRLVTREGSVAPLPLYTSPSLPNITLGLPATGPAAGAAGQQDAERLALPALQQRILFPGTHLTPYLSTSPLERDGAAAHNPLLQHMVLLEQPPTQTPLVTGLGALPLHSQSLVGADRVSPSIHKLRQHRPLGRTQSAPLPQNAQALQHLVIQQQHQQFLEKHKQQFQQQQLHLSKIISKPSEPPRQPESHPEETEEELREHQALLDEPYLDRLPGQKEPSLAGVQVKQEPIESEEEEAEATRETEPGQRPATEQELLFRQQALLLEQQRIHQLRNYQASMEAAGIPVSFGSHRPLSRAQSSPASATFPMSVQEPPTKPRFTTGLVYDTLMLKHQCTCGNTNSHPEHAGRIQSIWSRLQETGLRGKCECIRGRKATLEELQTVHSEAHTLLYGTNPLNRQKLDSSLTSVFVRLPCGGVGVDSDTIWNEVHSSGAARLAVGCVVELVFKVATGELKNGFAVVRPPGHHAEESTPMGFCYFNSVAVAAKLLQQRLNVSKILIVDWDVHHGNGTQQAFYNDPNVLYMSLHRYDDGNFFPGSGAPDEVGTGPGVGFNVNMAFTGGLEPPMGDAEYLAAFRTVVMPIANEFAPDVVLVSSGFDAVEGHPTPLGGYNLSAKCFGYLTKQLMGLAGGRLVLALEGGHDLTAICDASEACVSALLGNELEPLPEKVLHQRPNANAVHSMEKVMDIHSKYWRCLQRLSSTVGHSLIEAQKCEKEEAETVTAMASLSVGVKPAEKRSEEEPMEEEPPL

Like-named read-outs stand apart in the source and are kept apart here. These are yes or no findings as the source states them, for the method shown. Binding seen in cells or lysates may run through a third protein. Some binding calls cover weakened binding; strength is not graded here.

Assay [1] concerns the target T1, retinoic acid receptor alpha (RARα) (mouse (endogenous in mouse SMCs)) (UniProt P11416).
T1 sequence: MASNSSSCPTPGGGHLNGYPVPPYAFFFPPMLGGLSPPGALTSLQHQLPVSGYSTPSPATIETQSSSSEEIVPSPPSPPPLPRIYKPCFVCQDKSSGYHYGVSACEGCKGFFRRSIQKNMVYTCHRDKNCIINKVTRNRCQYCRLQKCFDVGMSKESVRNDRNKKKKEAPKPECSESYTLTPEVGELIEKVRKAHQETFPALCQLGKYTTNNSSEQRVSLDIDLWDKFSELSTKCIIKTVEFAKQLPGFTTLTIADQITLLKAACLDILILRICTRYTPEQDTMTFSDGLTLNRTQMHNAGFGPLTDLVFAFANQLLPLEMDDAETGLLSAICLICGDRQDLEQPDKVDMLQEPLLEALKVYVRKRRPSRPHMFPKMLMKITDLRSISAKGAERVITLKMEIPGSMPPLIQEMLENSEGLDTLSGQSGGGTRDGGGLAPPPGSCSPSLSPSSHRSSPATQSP
Put plainly: co-IP.

The target of assay [2] is T1, retinoic acid receptor alpha (RARα) (mouse (endogenous in mouse SMCs)). The assay can be described thus: co-IP. The source holds these as a separate data set.

As for EZH2 (from UniProt Q61188 1-746), in assay [1], the binding entry is given as “binds”.

In the case of HDAC1 (from UniProt O09106 1-482), the binding entry in assay [1] is “binds”. On to HDAC4 (from UniProt Q6NZM9 1-1076), for which the binding result in assay [1] is on record as “no binding”.

B1: HDAC6 (protein, UniProt Q9Z2V5 1-1149)
chain: MTSTGQDSSTRQRKSRHNPQSPLQESSATLKRGGKKCAVPHSSPNLAEVKKKGKMKKLSQPAEEDLVVGLQGLDLNPETRVPVGTGLVFDEQLNDFHCLWDDSFPESPERLHAIREQLILEGLLGRCVSFQARFAEKEELMLVHSLEYIDLMETTQYMNEGELRVLAETYDSVYLHPNSYSCACLATGSVLRLVDALMGAEIRNGMAVIRPPGHHAQHNLMDGYCMFNHLAVAARYAQKKHRIQRVLIVDWDVHHGQGTQFIFDQDPSVLYFSIHRYEHGRFWPHLKASNWSTIGFGQGQGYTINVPWNQTGMRDADYIAAFLHILLPVASEFQPQLVLVAAGFDALHGDPKGEMAATPAGFAHLTHLLMGLAGGKLILSLEGGYNLRALAKGVSASLHTLLGDPCPMLESCVVPCASAQTSIYCTLEALEPFWEVLERSVETQEEDEVEEAVLEEEEEEGGWEATALPMDTWPLLQNRTGLVYDEKMMSHCNLWDNHHPETPQRILRIMCHLEEVGLAARCLILPARPALDSELLTCHSAEYVEHLRTTEKMKTRDLHREGANFDSIYICPSTFACAKLATGAACRLVEAVLSGEVLNGIAVVRPPGHHAEPNAACGFCFFNSVAVAARHAQIIAGRALRILIVDWDVHHGNGTQHIFEDDPSVLYVSLHRYDRGTFFPMGDEGASSQVGRDAGIGFTVNVPWNGPRMGDADYLAAWHRLVLPIAYEFNPELVLISAGFDAAQGDPLGGCQVTPEGYAHLTHLLMGLAGGRIILILEGGYNLASISESMAACTHSLLGDPPPQLTLLRPPQSGALVSISEVIQVHRKYWRSLRLMKMEDKEECSSSRLVIKKLPPTASPVSAKEMTTPKGKVPEESVRKTIAALPGKESTLGQAKSKMAKAVLAQGQSSEQAAKGTTLDLATSKETVGGATTDLWASAAAPENFPNQTTSVEALGETEPTPPASHTNKQTTGASPLQGVTAQQSLQLGVLSTLELSREAEEAHDSEEGLLGEAAGGQDMNSLMLTQGFGDFNTQDVFYAVTPLSWCPHLMAVCPIPAAGLDVSQPCKTCGTVQENWVCLTCYQVYCSRYVNAHMVCHHEASEHPLVLSCVDLSTWCYVCQAYVHHEDLQDVKNAAHQNKFGEDMPHSH
Regarding B1, the binding result in assay [2] was “binds”.
